The list shows only some results of the screen, not a fair sample: it gathers tests that were run many times, whatever their T/C, doses with no T/C, and many T/C values between a quarter and a half above the control. Further doses and runs are listed elsewhere. T/C gives the treated animals as a percentage of the vehicle group. Schedule codes are those of the source, read here as Q, the interval in days (D) or hours (H), X, the number of doses. Some T/C values carry the count of animals alive at the toxicity check (mostly the fifth day); without a count, all were alive then. Some doses were run more than once; their values stand side by side, smallest first. Some values lie below zero, which means that the treated tumours became smaller. Some doses have a count of surviving animals in place of a T/C: the source files T/C as zero there, which appears to mark a toxic dose or a test without result, not a measured value. Survivors were counted at the toxicity check, usually on the fifth day, unless a day is given; later deaths do not show.
Tested on: nude mice, A549 intrarenal xenograft, tumor weight change
Experiment: NCI In Vivo Anticancer Drug Screen. Data for tumor model A549 Human Adenocarcinoma of Lung with characteristics of Type II Alveolar Epithelial cells (intrarenal inoculation) in NU/NU BALB/C (nude) mice
Conditions: T/C endpoint: mean tumor weight change, schedule: Q04DX003 (ip), higher T/C = larger tumour; for T/C: evaluated on day 12
Method in brief: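 Activity is expressed as T/C: the treated-group value over the vehicle-treated control value. The measure was survival or tumor size in mice carrying transplantable tumors.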

[1] = dose: 600.0 mg/kg/injection, vehicle: Klucel (hydroxypropylcellulose) (HPC)
[2] = dose: 1200.0 mg/kg/injection, vehicle: Klucel (hydroxypropylcellulose) (HPC)
[3] = dose: 50.0 mg/kg/injection, vehicle: Klucel (hydroxypropylcellulose) (HPC)
[4] = dose: 400.0 mg/kg/injection, vehicle: Klucel (hydroxypropylcellulose) (HPC)
[5] = dose: 300.0 mg/kg/injection, vehicle: saline with Tween-80
[6] = dose: 600.0 mg/kg/injection, vehicle: saline with Tween-80
[7] = dose: 1200.0 mg/kg/injection, vehicle: saline with Tween-80
[8] = dose: 50.0 mg/kg/injection, vehicle: saline
[9] = dose: 75.0 mg/kg/injection, vehicle: saline
[10] = dose: 112.0 mg/kg/injection, vehicle: saline

O=C1CNC(=O)N1CN1CCOCC1
survivor count [1]: 2 of 6 on day 12 | survivor count [2]: 0 of 6 on day 12

CC(C)(C)NC(C1=CC(C)(C)c2ccccc2C1=O)c1ccccc1 (stereo not drawn)
T/C [3]: 125 % of control | survivor count [4]: 1 of 6 on day 12

CCOC(=O)/C=C/C(=O)N1CCN(C(=O)/C=C/C(=O)OCC)C(C)C1 (stereo not drawn)
survivor count [2]: 0 of 6 on day 12

Cc1c(O)/c(=C\O)c2nc3c(=O)ccc(C(=O)NCCN(C)C)c3[nH]c2c1=O
survivor count (dose: 333.0 mg/kg/injection, vehicle: water): 1 of 6 on day 12 | survivor count (dose: 333.33 mg/kg/injection, vehicle: water): 1 of 6 on day 12 | survivor count (dose: 400.0 mg/kg/injection, vehicle: water): 2 of 6 on day 12

CCCCCCNc1nc(NCCCCCC)c2[nH]c(NCCCCCC)nc2n1
survivor count [5]: 2 of 6 on day 12 | survivor count [6]: 0 of 6 on day 12

CC(C)N1C(=O)N(Cl)C2C1N(Cl)C(=O)N2Cl (stereo not drawn)
survivor count (dose: 25.0 mg/kg/injection, vehicle: saline with Tween-80): 1 of 5 on day 12

CCCCCCCCCCCCCCCCCCOCC(CO)OC (stereo not drawn)
survivor count [6]: 3 of 6 on day 12 | survivor count [7]: 1 of 6 on day 12 and 3 of 5 on day 12

CCOc1ccc(C(C)c2cc3c(cc2OC)OCO3)cc1 (stereo not drawn)
survivor count (dose: 800.0 mg/kg/injection, vehicle: distilled water + Tween-80): 1 of 6 on day 12

O=c1[nH]cc(F)c(=O)[nH]1
T/C [8]: 20 [4 of 5 alive on day 12], 35, 37, 51, 63 % of control [5 of 6 alive on day 12] | T/C [9]: 12, 16, 20 % of control [4 of 6 alive on day 12] | survivor count [9]: 3 of 6 on day 12 | T/C [10]: 20 % of control [4 of 6 alive on day 12] | survivor count [10]: 1 of 6 on day 12 and 3 of 6 on day 12

COc1cc2c(c(OC)c1O)-c1ccc(OC)c(=O)cc1[C@@H](NC(=O)C(F)(F)F)CC2
survivor count (dose: 33.33 mg/kg/injection, vehicle: Klucel (hydroxypropylcellulose) (HPC)): 1 of 5 on day 12 | survivor count (dose: 40.0 mg/kg/injection, vehicle: Klucel (hydroxypropylcellulose) (HPC)): 2 of 6 on day 12

O=C(NC(Cc1ccc(I)cc1)C(=O)O)c1cccc(Br)c1 (stereo not drawn)
survivor count [4]: 3 of 5 on day 12 | survivor count [1]: 1 of 6 on day 12 | survivor count (dose: 800.0 mg/kg/injection, vehicle: Klucel (hydroxypropylcellulose) (HPC)): 1 of 6 on day 12 | survivor count [2]: 0 of 6 on day 12

C=CCOc1cc2c(cc1C(C)c1ccc(OC)cc1)OCO2 (stereo not drawn)
T/C (dose: 75.0 mg/kg/injection, vehicle: Klucel (hydroxypropylcellulose) (HPC)): 147 % of control | survivor count [1]: 1 of 6 on day 12 and 3 of 6 on day 12

Cc1cccc(OCC(O)CN2CC2)c1 (stereo not drawn)
survivor count (dose: 400.0 mg/kg/injection, vehicle: saline with Tween-80): 0 of 6 on day 12

O=NN(CCCl)C(=O)NCCCl
T/C (dose: 12.0 mg/kg/injection, vehicle: saline + alcohol): -19, 3, 7, 30, 52 [5 of 6 alive on day 12], 68 % of control [5 of 6 alive on day 12] | T/C (dose: 18.0 mg/kg/injection, vehicle: saline + alcohol): 2 [5 of 6 alive on day 12], 4, 9, 26 [4 of 5 alive on day 12], 32, 49 % of control | T/C (dose: 27.0 mg/kg/injection, vehicle: saline + alcohol): -41, -15, 13, 15, 45 [5 of 6 alive on day 12], 50 % of control

CNC(=O)OCc1nc(SC)n(C)c1COC(=O)NC
survivor count [8]: 0 of 6 on day 12 | survivor count (dose: 100.0 mg/kg/injection, vehicle: saline): 0 of 6 on day 12 | survivor count (dose: 200.0 mg/kg/injection, vehicle: saline): 0 of 6 on day 12

CC(O)CCC(=O)c1ccoc1 (stereo not drawn)
T/C (dose: 13.5 mg/kg/injection, vehicle: saline): 125 % of control | T/C (dose: 18.0 mg/kg/injection, vehicle: saline): 130 % of control

Cc1c(N)nc([C@H](CC(N)=O)NC[C@H](N)C(N)=O)nc1C(=O)N[C@H](C(=O)N[C@H](C)[C@@H](O)[C@H](C)C(=O)N[C@H](C(=O)NCCc1nc(-c2nc(C(=O)NCCC[S+](C)C)cs2)cs1)[C@@H](C)O)C(OC1OC(CO)C(O)C(O)C1OC1OC(CO)C(O)C(OC(N)=O)C1O)c1cnc[nH]1 (stereo partly drawn)
T/C (dose: 16.0 mg/kg/injection, vehicle: saline): 47, 48, 58, 64, 65, 103, 140 % of control | T/C (dose: 24.0 mg/kg/injection, vehicle: saline): 18, 24, 32, 35, 57, 59, 66 % of control [5 of 6 alive on day 12] | T/C (dose: 36.0 mg/kg/injection, vehicle: saline): 3, 16, 30, 44 [3 of 4 alive on day 12], 45, 61, 102 % of control

COc1cccc2c1C(CO)N1C(C#N)C3CC(C(=O)O)C(C1C2)N3C (stereo not drawn)
survivor count (dose: 60.0 mg/kg/injection, vehicle: saline with Tween-80): 3 of 6 on day 12 | survivor count (dose: 120.0 mg/kg/injection, vehicle: saline with Tween-80): 2 of 6 on day 12

N#CC(C#N)=NNc1ccc2cn[nH]c2c1
T/C [3]: 128 % of control

NC(=S)N/N=C/c1cc(=O)c2cc(Cl)ccc2o1
survivor count (dose: 150.0 mg/kg/injection, vehicle: DMSO): 3 of 5 on day 12 | survivor count (dose: 1200.0 mg/kg/injection, vehicle: other): 2 of 6 on day 12

CCCCNP1(NCCCC)=NP(NCCCC)(NCCCC)=NP(NCCCC)(NCCCC)=NP(NCCCC)(NCCCC)=N1
survivor count [6]: 0 of 6 on day 12 | survivor count [7]: 0 of 6 on day 12

CC1/C=C/C=C/CC/C=C/C=C/C=C/C=C/C(OC2OC(C)C(O)C(N)C2O)CC2OC(CC(O)C(O)CCC(O)CC(O)CC(O)CC(=O)OC(C)C(C)C1O)CC(O)C2C(=O)O (stereo not drawn)
survivor count (dose: 200.0 mg/kg/injection, vehicle: saline with Tween-80): 3 of 5 on day 12

S=c1sc2ccccc2n1CN1CCOCC1
survivor count [7]: 1 of 6 on day 12

NC(Cc1ccccc1)C(=O)OCN1C(=O)C2C3C=CC(C2C1=O)C1C2C(=O)N(COC(=O)C(N)Cc4ccccc4)C(=O)C2C31 (stereo not drawn)
survivor count (dose: 400.0 mg/kg/injection, vehicle: other): 0 of 6 on day 12

C/C=C/CC(C)C(O)C1C(=O)NC(CC)C(=O)N(C)CC(=O)N(C)C(CC(C)C)C(=O)NC(C(C)C)C(=O)N(C)C(CC(C)C)C(=O)NC(C)C(=O)NC(C)C(=O)N(C)C(CC(C)C)C(=O)N(C)C(CC(C)C)C(=O)N(C)C(C(C)C)C(=O)N1C (stereo not drawn)
survivor count (dose: 300.0 mg/kg/injection, vehicle: Klucel (hydroxypropylcellulose) (HPC)): 3 of 6 on day 12 | survivor count [1]: 2 of 5 on day 12

COc1cccc(Sc2ccc([N+](=O)[O-])c3no[n+]([O-])c23)c1
survivor count [5]: 2 of 6 on day 12 | survivor count [6]: 1 of 6 on day 12
